Part of at least one peptide drawing is inferred or uncertain, most often the ends. Where a SMILES comes first, the peptide text is derived from it.
Legend:
MHV3 virus = test: Survival tests upon MHV3 virus infection; format: in vivo, mice of the BDF1 strain; conditions: 50 LD50 of virus on the 12th day; for Survival times: 0.1 ml of 3.5 g/l, harmonic average
Lewis Lung Carcinoma = test: Lewis Lung Carcinoma, first set of experiments; format: in vivo, mice; conditions: 17.5 mg/Kg at time 0 and day 14

Row | SMILES | Survival times (MHV3 virus; 1st test) [days] | Survival times (MHV3 virus; 2nd test) [days] | Survival times, AVG (MHV3 virus; AVG of the tests) [days] | mortality time of the remainder (Lewis Lung Carcinoma; compared with controls, p<5. 10x^-4) | animals that survived (Lewis Lung Carcinoma; tumour implanted day 13 in leg) [%]
1 | CC(=O)N[C@@H](C)C(=O)N[C@@H](CC(C)C)C(=O)N[C@@H](Cc1ccccc1)C(=O)O [P1, monoacetic derivative of the tripeptide Ala-Leu-Phe] (Ac-Ala-Leu-Phe-OH) | 9.21 | 14.00 | 6.24 | – | –
2 | CC(=O)N[C@@H](CC(C)C)C(=O)N[C@@H](Cc1ccccc1)C(=O)N[C@@H](C)C(=O)O [P3, monoacetic derivative of the tripeptide Leu-Phe-Ala] (Ac-Leu-Phe-Ala-OH) | – | – | – | longer than that of controls | 20

Reference: EP0627444B1, “Monoacetic derivatives of the peptides leu-phe-ala and ala-leu-phe and their use in identifying and destroying tumour cells, viruses and virus-carrying cells” (priority 1993, dated 1998)
